{"source": "paper PMC6149861", "about": "“Identification, In Vitro Testing and Molecular Docking Studies of Microginins’ Mechanism of Angiotensin-Converting Enzyme Inhibition” (Molecules : A Journal of Synthetic Chemistry and Natural …, 2017)", "origin": "cited, not measured here", "test_system": "human ACE", "details": "co-crystal structure; ref PDB: 2X8Z; cited from earlier work", "data": [{"compound": "C[C@H](CS)C(=O)N1CCC[C@H]1C(=O)O", "note": "[captopril]", "values": [{"measurement": "distance sulphur atom to zinc", "result": 2.1, "unit": "Å"}, {"measurement": "hydrogen bond with Tyr507 and His337 (in words)", "result": "the residues Tyr507 and His337 show a hydrogen bond with captopril and microginin"}, {"measurement": "location of ring in ACE (in words)", "result": "located in the S2-pocket of the ACE"}]}]}
